Eight substances from PMC2757917 can be followed below.

The chains behind the UniProt entries cited, without tags or fusion partners. Where a name states a change or a piece, a line headed by the entry shows the natural chain unless it says otherwise.
UniProt O43186: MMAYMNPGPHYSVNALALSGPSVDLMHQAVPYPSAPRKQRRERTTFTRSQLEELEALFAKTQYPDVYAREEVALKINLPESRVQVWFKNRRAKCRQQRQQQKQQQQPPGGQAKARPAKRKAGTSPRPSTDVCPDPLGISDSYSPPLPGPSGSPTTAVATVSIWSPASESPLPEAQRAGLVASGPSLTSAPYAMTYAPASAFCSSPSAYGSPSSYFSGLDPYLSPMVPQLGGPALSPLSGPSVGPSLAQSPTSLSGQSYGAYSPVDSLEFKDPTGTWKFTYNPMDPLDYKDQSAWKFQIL
UniProt Q9Y5X4: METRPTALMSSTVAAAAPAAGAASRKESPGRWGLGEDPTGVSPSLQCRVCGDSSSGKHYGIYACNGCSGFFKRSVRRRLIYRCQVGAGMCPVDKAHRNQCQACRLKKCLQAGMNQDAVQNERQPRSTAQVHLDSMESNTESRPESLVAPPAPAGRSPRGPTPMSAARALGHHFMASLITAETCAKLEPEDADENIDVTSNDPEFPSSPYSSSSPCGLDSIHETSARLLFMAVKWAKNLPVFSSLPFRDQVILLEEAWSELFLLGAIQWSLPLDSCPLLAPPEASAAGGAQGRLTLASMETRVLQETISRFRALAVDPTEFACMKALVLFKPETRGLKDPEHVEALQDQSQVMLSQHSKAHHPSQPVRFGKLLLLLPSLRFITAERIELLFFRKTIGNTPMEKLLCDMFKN

Assay [1] has as its target Crx-RLuc (human CRX fused in N-terminus of RLuc) (human) (UniProt O43186). Nature of the assay: FRET or BRET; BRET^2 in living HEK293T cells 48 h after transient transfection; RLuc fusion as donor, GFP^2 fusion as acceptor; 5 uM Coelenterazine h/DeepBlueC, emission 515 nm/410 nm; fixed amounts of vectors and series with increasing GFP^2 vector. (In general: Bioluminescence resonance energy transfer reports proximity on the nanometre scale.)

Assay [2] concerns the target NR2E3-RLuc (Renilla luciferase fused to the C-terminus of NR2E3) (human) (UniProt Q9Y5X4). Described as above.
The target in assay [3] is human NR2E3 wild-type protein (pcDNA3.1/HisC-hNR2E3) (human) (UniProt Q9Y5X4). As to the kind of experiment: native gel or EMSA; total protein extracts of transfected HEK293T cells on an 8% PAA-gel under non-denaturing conditions, Western blot with an anti-NR2E3 antibody.
Another assay concerns the target RLuc-NR2E3 (human) (UniProt Q9Y5X4). Nature of the assay: FRET or BRET; BRET^2 in living HEK293T cells 48 h after transient transfection; RLuc fusion as donor, GFP^2 fusion as acceptor; 5 uM Coelenterazine h/DeepBlueC, emission 515 nm/410 nm; fixed amounts of vectors and series with increasing GFP^2 vector.
The target in assay [4] is RLuc-Crx (CRX located in the C-terminus of the renilla) (human) (UniProt O43186). The description is as above.

These are yes or no findings as the source states them, for the method shown. For some assays here: Binding seen in cells or lysates may run through a third protein. Some binding calls cover weakened binding; strength is not graded here.

For “NR2E3 p.R311Q-GFP^2 (from UniProt Q9Y5X4 1-410)”, the binding entry in assay [1] is on record as “binds”.
Regarding “GFP^2-NR2E3 p.R97H (from UniProt Q9Y5X4 1-410)”, in assay [2], the binding result is on record as “binds”.
As to “human NR2E3 wild-type protein (pcDNA3.1/HisC-hNR2E3) (from UniProt Q9Y5X4 1-410)”, the binding result in assay [3] is “binds weakly”.
Take “NR2E3 p.G56R-GFP^2 (from UniProt Q9Y5X4 1-410)”: the binding result in assay [1] is recorded as “binds”.
For “GFP^2-NR2E3 (GFP^2 fused to the N-terminus of NR2E3) (from UniProt Q9Y5X4 1-410)”, the binding result (in assay [2]; with RLuc-NR2E3 (human); in assay [1]; in assay [4]) was “binds” throughout.
“GFP^2-NR2E3 p.G56R (from UniProt Q9Y5X4 1-410)”: the binding result in assay [2] was “binds”.
With NR2E3-GFP^2 (from UniProt Q9Y5X4 1-410), the binding entry (in assay [2]; in the assay with RLuc-NR2E3 (human); in assay [1]; in assay [4]) was “binds” throughout.
Take “GFP^2-NR2E3 p.R311Q (from UniProt Q9Y5X4 1-410)”: the binding entry in assay [2] is on record as “binds”.
